Test results taken from PMC11130238, “Mechanism of complement inhibition by a mosquito protein revealed through cryo-EM” (Communications Biology, 2024).
Results are given in words; binding and its absence hold for the method and conditions named.

Amino acid sequences for entries named in this document (tags omitted). A change or cut given only in a name is not applied to a line headed by its entry.
UniProt P01024: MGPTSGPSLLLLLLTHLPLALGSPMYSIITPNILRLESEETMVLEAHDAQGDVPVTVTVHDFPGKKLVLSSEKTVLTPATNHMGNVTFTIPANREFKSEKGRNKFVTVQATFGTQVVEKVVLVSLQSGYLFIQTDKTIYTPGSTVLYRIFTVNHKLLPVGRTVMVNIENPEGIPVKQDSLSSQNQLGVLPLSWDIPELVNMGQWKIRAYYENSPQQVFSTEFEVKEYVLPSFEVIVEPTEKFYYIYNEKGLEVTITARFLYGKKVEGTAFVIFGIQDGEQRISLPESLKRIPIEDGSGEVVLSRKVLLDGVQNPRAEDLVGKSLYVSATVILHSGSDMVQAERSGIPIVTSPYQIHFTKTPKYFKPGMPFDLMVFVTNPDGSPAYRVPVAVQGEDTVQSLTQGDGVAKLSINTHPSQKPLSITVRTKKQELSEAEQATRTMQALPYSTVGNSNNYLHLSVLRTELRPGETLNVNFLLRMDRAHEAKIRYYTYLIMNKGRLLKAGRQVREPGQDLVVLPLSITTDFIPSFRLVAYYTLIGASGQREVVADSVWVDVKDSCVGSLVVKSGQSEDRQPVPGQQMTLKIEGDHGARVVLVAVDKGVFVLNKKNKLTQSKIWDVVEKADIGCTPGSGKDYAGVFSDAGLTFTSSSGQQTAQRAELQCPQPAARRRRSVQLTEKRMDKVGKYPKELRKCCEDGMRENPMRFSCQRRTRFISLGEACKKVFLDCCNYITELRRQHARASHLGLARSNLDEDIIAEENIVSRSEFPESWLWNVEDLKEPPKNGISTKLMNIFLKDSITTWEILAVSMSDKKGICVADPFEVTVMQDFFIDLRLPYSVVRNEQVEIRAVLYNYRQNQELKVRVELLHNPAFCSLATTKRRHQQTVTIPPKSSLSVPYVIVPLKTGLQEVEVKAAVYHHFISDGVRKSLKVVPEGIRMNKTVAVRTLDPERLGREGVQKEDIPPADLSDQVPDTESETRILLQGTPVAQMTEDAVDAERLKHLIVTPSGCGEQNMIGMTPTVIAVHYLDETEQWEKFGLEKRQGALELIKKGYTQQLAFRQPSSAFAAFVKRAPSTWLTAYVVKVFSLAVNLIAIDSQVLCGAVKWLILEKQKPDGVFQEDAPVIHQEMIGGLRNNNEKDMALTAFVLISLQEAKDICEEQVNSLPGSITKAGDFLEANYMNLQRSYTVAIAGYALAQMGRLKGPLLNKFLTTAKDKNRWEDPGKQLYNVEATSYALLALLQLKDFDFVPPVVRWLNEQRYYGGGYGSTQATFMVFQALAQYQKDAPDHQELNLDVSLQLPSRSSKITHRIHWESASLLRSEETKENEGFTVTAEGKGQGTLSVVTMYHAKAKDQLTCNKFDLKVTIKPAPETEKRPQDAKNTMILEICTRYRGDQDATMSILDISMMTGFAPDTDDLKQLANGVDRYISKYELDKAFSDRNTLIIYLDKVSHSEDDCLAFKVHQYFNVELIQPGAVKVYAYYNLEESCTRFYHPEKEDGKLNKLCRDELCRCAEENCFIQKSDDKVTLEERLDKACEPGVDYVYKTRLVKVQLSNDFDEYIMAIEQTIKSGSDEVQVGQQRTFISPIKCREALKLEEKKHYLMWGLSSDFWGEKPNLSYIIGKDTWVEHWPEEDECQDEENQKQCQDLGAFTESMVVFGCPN

Target: C3bBb, the alternative pathway C3 convertase (human) (UniProt P01024)
Assay: SEC; C3b, FB and albicin incubated with FD for 14 h; Superdex 200 in buffer A; SDS-PAGE of fractions; both purified

B1: albicin (natural protein)
chain: ANNHIRTVLKLFRTIDLDDSKKSFYLTAAKYGIQTQLREPIIRIVGGYLPSTKLSEACVKNMISEVYEIEGDFYSKFSYACEDHAPYSVECLEDARDDYLTQLVELFKETKKCLRE
notes: albicin, salivary Sg7-1 family protein of the mosquito Anopheles albimanus; crystal structure PDB 6XKE; Four-helix bundle with two disulfide bonds; Probably made without its signal peptide (surmised); also called Sg7-1 protein of An. albimanus
binding: no binding (condition: after 14 h of incubation)
